Assay results published in PubChem BioAssay AID504834 (National Center for Advancing Translational Sciences (NCATS), 2011).
Screen size: about 320,000 compounds; about 22,000 (6.9%) were called active. Inconclusive results, whose numbers are uncertain, are shown with a selection of clear calls. Calls come from the whole dose curve; as a rule, active = well fitted inhibition curve with a large enough effect; inconclusive = small, poorly fitted or top-dose-only effect, or another doubt; inactive = no such curve, though single readings can be large or run the other way. Where the call is inconclusive, the potency comes from a doubtful curve fit.

experiment: Primary qHTS for delayed death inhibitors of the malarial parasite plastid, 96 hour incubation; conditions: P. falciparum luciferase reporter growth; series mostly up to 28.7 µM; activity change, negative = inhibition: at the top concentration
How it was run: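 P. falciparum expressing integrated firefly luciferase, in erythrocytes at 2% hematocrit, 0.05% parasitemia, incubated with compounds 96 h at 37 C, 5% CO2. Growth inhibition read as loss of luminescence; two-generation exposure targets delayed-death apicoplast inhibitors.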
% is set by controls: 0 for no effect and ±100 for the full control effect; potency is the fitted concentration of half-maximal effect.

Which Potency does the source give for `CC(=O)c1c(C)nn(CCC(=O)O)c1C` here?
Its Potency is inconclusive: 13.1 µM [inhibitor, single point].

For `CC1(C)C(C(=O)N2CCN(c3ccc(Cl)cc3)CC2)C1(C)C`, which “activity change, negative = inhibition” value is on record?
The value was inactive: 4.77%.

Which “activity change, negative = inhibition” value does the source give for `COc1cccc(N2CC(O)Cn3c2nc2c3c(=O)[nH]c(=O)n2C)c1` (stereo not drawn) here?
The value was inactive: 3.8%.

With `CC1(C)C2CC=C(/C=N/NC(=S)Nc3cccnc3)C1C2` (stereo not drawn) as the compound, how does the Potency read?
The Potency was inconclusive: 18.5 µM [inhibitor, partial curve, poor fit].

With `O=C1C=C(c2cc(Cl)cc(Cl)c2)C[C@@H](c2ccc(F)cc2)C1` as the compound, how does the Potency read?
Its Potency is inconclusive: 3.29 µM [inhibitor, single point].

For `COc1ccc(C(C)(C)C)cc1NC(=O)c1ccoc1C`, which Potency is on record?
Its Potency is active: 11.7 µM.

For `Cc1ccsc1/C=N\NC(=O)c1ccc2c(c1)OCO2`, which “activity change, negative = inhibition” value is on record?
Its value is inactive: 197%.

For `N#Cc1ccc(OCC(O)CN2CCN(CC(O)COc3ccc(C#N)cc3)CC2)cc1` (stereo not drawn), which Potency is on record?
Its Potency is inconclusive: 0.0586 µM [inhibitor, partial curve, poor fit].

Which Potency does the source give for `COc1cc(C(=O)NC2Cc3ccccc3C2)ccc1OC1CCN(C(C)=O)CC1` here?
Its Potency is inconclusive: 10.4 µM [inhibitor, single point].

With `N#Cc1ccccc1NC(=S)NC(=O)c1cccs1` as the compound, how does the “activity change, negative = inhibition” value read?
The value was inactive: 4.06%.

For `O=C(Cc1ccccc1)Nc1scc(-c2ccccc2)c1C(=O)N1CCOCC1`, which Potency is on record?
The Potency was inconclusive: 13.1 µM [inhibitor, single point].

Which “activity change, negative = inhibition” value does the source give for `COc1cccc(C=NCCCN=Cc2cccc(OC)c2O)c1O` here?
The value was inactive: -1.65%.

Which “activity change, negative = inhibition” value does the source give for `Cc1cccc(NC(=O)CN(C)S(=O)(=O)c2cnc[nH]2)c1` here?
Its value is inactive: 1.28%.

Which Potency does the source give for `Cc1cccn2c(=O)c3cc(C(=O)NC4CCCCC4)c(=N)n(CCN4CCOCC4)c3nc12` here?
The Potency was inconclusive: 2.94 µM [inhibitor, full curve, poor fit].

For `CCC(C)NC(=S)N1CCN(Cc2ccc3c(c2)OCO3)CC1` (stereo not drawn), which Potency is on record?
Its Potency is inconclusive: 0.0029 µM [inhibitor, full curve, poor fit].

For `COCCn1c(N/N=C(C)/C=C/c2ccccc2)nc2c1c(=O)[nH]c(=O)n2C`, which Potency is on record?
Its Potency is inconclusive: 18.5 µM [inhibitor, single point].

With `Cc1cccc(C)c1NC(=O)NC1CC2CCC(C1)N2Cc1cccs1` (stereo not drawn) as the compound, how does the Potency read?
The Potency was inconclusive: 14.7 µM [inhibitor, partial curve, poor fit].

Which Potency does the source give for `O=C(Cn1nc(C(F)(F)F)c2c1CCC2)NCc1ccc(F)cc1` here?
Its Potency is inconclusive: 18.5 µM [inhibitor, single point].

With `O=C(CCS(=O)(=O)c1ccccc1)Nc1nc2c(s1)COc1ccccc1-2` as the compound, how does the Potency read?
The Potency was inconclusive: 13.1 µM [inhibitor, single point].

With `CC(=O)N1CCN(c2ccc(NCc3cccc(C)c3)cc2)CC1` as the compound, how does the “activity change, negative = inhibition” value read?
Its value is inactive: 66.9%.

With `CCOC(=O)C1CCN(C2=NC(=O)/C(=C/c3ccc(OC)c(OC)c3)S2)CC1` as the compound, how does the Potency read?
Its Potency is inconclusive: 3.7 µM [inhibitor, partial curve, poor fit].

For `CC1(c2ccc(OC(F)F)cc2)NC(=O)N(/N=C/c2c(O)ccc3ccccc23)C1=O` (stereo not drawn), which “activity change, negative = inhibition” value is on record?
Its value is inactive: 69.6%.

With `COc1ccc(S(=O)(=O)Oc2ccccc2C(N)=O)cc1` as the compound, how does the “activity change, negative = inhibition” value read?
The value was inactive: -5.34%.

Which Potency does the source give for `Cc1ccc(NC(=O)CN(C)C(=O)c2ccc(S(=O)(=O)N(C)c3ccccc3)cc2)cc1` here?
The Potency was inconclusive: 4.65 µM [inhibitor, partial curve, poor fit].

Which “activity change, negative = inhibition” value does the source give for `COCCN=C1Sc2nc3c(C)cccc3cc2CN1Cc1ccco1` here?
The value was inactive: -4.7%.

For `O=C(NCc1ccc(F)cc1)C1CCC(CNS(=O)(=O)c2cccs2)CC1` (stereo not drawn), which Potency is on record?
The Potency was inconclusive: 2.33 µM [inhibitor, full curve, poor fit].

For `COc1ccc(O)c(-c2cn[nH]c2-c2cccs2)c1`, which Potency is on record?
The Potency was inconclusive: 18.5 µM [inhibitor, single point].

Which Potency does the source give for `CCc1ccccc1NC(=S)N(Cc1cccs1)C1CCCC1` here?
Its Potency is inconclusive: 18.5 µM [inhibitor, single point].

Which Potency does the source give for `CC(C)C(NS(=O)(=O)c1cccc2nsnc12)C(=O)NC1CCCCC1C` (stereo not drawn) here?
The Potency was inconclusive: 18.5 µM [inhibitor, single point].

Which Potency does the source give for `CC(C)N(CCc1ccncc1)C(=O)Nc1ccc(F)cc1` here?
The Potency was inconclusive: 18.5 µM [inhibitor, single point].

Which “activity change, negative = inhibition” value does the source give for `CC1=C(C(=O)OCc2ccccc2)C(c2ccccc2Br)NC(=O)N1` (stereo not drawn) here?
The value was inactive: 65.7%.

Which Potency does the source give for `CC(CCc1ccccc1)NC(=O)CC(C)c1ccccc1` (stereo not drawn) here?
The Potency was inconclusive: 16.5 µM [inhibitor, single point].

With `COc1cccc(/C=N/NC(=O)c2cccc3ccccc23)c1` as the compound, how does the Potency read?
Its Potency is inconclusive: 16.5 µM [inhibitor, single point].

Which “activity change, negative = inhibition” value does the source give for `O=C(/C=C/c1ccc(F)cc1)N1CCN(c2ncccn2)CC1` here?
The value was inactive: -14.8%.

For `COc1ccc(Cl)cc1NC(=O)CNc1ccccc1CN(C)C1CCCCC1`, which Potency is on record?
The Potency was inconclusive: 13.1 µM [inhibitor, single point].

Which Potency does the source give for `COc1ccc(OC)c(CNC(=O)Cc2c(C(=O)O)[nH]c3ccccc23)c1` here?
The Potency was active: 9.28 µM.

For `COC(=O)c1ccc(COc2ccc(/C=C/C(=O)c3ccc(OC)c(CSCC(=O)O)c3)cc2OC)cc1`, which Potency is on record?
Its Potency is inconclusive: 18.5 µM [inhibitor, single point].

For `COc1ccc(/C=C(\NC(=O)c2ccccc2)C(=O)N/N=C/c2sccc2C)cc1`, which Potency is on record?
The Potency was inconclusive: 18.5 µM [inhibitor, single point].

For `O=C(OCCN1CCCCC1)C(O)(c1ccccc1)c1ccccc1`, which Potency is on record?
Its Potency is inconclusive: 6.75 µM [inhibitor, partial curve].

For `CCOC(=O)c1c(NC(=O)CN2CCOCC2)sc2c1CC(C)(C)OC2`, which Potency is on record?
Its Potency is inconclusive: 11.7 µM [inhibitor, single point].

With `Cn1nccc1C(=O)Nc1ccc(Cl)cc1` as the compound, how does the “activity change, negative = inhibition” value read?
The value was inactive: 148%.

For `CN1CCN(C(=S)NC(=O)c2ccc(Br)cc2)CC1`, which Potency is on record?
The Potency was inconclusive: 0.415 µM [inhibitor, full curve, poor fit].

With `CC(C)CN1CCCC(N2CCN(c3cccc(Cl)c3)CC2)C1` (stereo not drawn) as the compound, how does the Potency read?
The Potency was inconclusive: 18.5 µM [inhibitor, single point].

Which Potency does the source give for `CCSc1ccc(-c2nn(-c3ccccc3)cc2/C=C(/C#N)C(=O)NCCCOC)cc1` here?
Its Potency is inconclusive: 4.15 µM [inhibitor, single point].

Which Potency does the source give for `CC(C)C(O)(C#CCN1CCCCC1)C(C)C` here?
The Potency was inconclusive: 13.1 µM [inhibitor, single point].

For `COc1cc(NS(=O)(=O)c2ccc(N/C=C(\C=O)c3nc4ccccc4o3)cc2)nc(OC)n1`, which “activity change, negative = inhibition” value is on record?
The value was inactive: -5%.

For `COc1cc2nc(CN3CCC(C(O)(c4ccccc4)c4ccccc4)CC3)[nH]c(=O)c2cc1OC`, which Potency is on record?
The Potency was inconclusive: 11.7 µM [inhibitor, partial curve].

Which Potency does the source give for `CCCCn1c(=O)[nH]c(=O)c2c1nc(-c1ccc(C)c([N+](=O)[O-])c1)n2CC` here?
The Potency was inconclusive: 13.1 µM [inhibitor, partial curve].

For `COc1ccccc1NS(=O)(=O)c1cccc(NC(=O)c2nn(C)c(=O)c3ccccc23)c1`, which Potency is on record?
Its Potency is active: 10.4 µM.

With `Cc1ccc(F)c(CNC(=O)C2CCC(=O)N(CCN3CCOCC3)C2)c1F` (stereo not drawn) as the compound, how does the Potency read?
Its Potency is inconclusive: 10.4 µM [inhibitor, single point].

For `CC(C)(Oc1ccc(Cl)cc1)C(=O)Nc1ccc2oc(=O)ccc2c1`, which Potency is on record?
The Potency was inconclusive: 4.15 µM [inhibitor, full curve, poor fit].

With `O=C(CN(c1ccc(Cl)c(C(F)(F)F)c1)S(=O)(=O)c1ccccc1)N/N=C/c1cccc2c1OCCO2` as the compound, how does the Potency read?
Its Potency is inconclusive: 6.57 µM [inhibitor, partial curve].

Which Potency does the source give for `COc1cc(/C=C2/C(=O)NC(=O)N(c3ccccc3)C2=O)ccc1O` here?
Its Potency is inconclusive: 18.5 µM [inhibitor, single point].

For `COc1ccc(OC)c(-c2csc(NC(=O)Cn3[nH]c(=O)c4ccccc4c3=O)n2)c1`, which Potency is on record?
Its Potency is inconclusive: 11.7 µM [inhibitor, single point].

Which Potency does the source give for `Cc1c(OCC(=O)N(C)c2ccccc2)ccc2c3c(c(=O)oc12)CCC3` here?
The Potency was inconclusive: 16.5 µM [inhibitor, single point].

With `O=C(CCC(=O)c1cccs1)Nc1ccc(N2CCCCC2)cc1` as the compound, how does the “activity change, negative = inhibition” value read?
The value was inactive: -12.3%.

For `CSc1ncc(CN2CCN(CC=C(C)C)C(CCO)C2)cn1` (stereo not drawn), which Potency is on record?
Its Potency is inconclusive: 13.1 µM [inhibitor, single point].

For `COc1ccc(OCC(=O)N2CCN(c3nnc(-c4ccccc4)c4ccccc34)CC2)cc1`, which Potency is on record?
The Potency was active: 1.85 µM.

With `O=C(Nc1nc2c(s1)CCCC2)c1ccc(S(=O)(=O)N2CCCc3ccccc32)cc1` as the compound, how does the Potency read?
Its Potency is active: 10.4 µM.

Which Potency does the source give for `CCOC(=O)c1cnc2ccc(OC)cc2c1NCCc1ccc(OC)c(OC)c1` here?
The Potency was inconclusive: 0.0657 µM [inhibitor, full curve, poor fit].

With `Cc1cc(C)nc(Nc2ccccc2Cl)n1` as the compound, how does the “activity change, negative = inhibition” value read?
Its value is inactive: 0%.

Which Potency does the source give for `O=C(Nc1cc(Cl)ccn1)C1(c2ccccc2)CC1(Cl)Cl` (stereo not drawn) here?
Its Potency is inconclusive: 18.5 µM [inhibitor, single point].

For `COc1ccc(CN2CC(=O)N3[C@H]4c5ccccc5OC[C@@H]4[C@H](c4ccccc4)[C@]3(C)C2=O)cc1`, which Potency is on record?
The Potency was inconclusive: 1.85 µM [inhibitor, full curve].

With `CC(=O)N1CCOc2ccc(S(=O)(=O)N3CCC(C(=O)Nc4ccc(F)cc4)CC3)cc21` as the compound, how does the Potency read?
Its Potency is active: 14.7 µM.

Which Potency does the source give for `CC(=O)c1nc(N2C(=O)CC(Cc3cc(C)cc(C)c3)C2=O)sc1C` (stereo not drawn) here?
Its Potency is inconclusive: 18.5 µM [inhibitor, single point].

With `Cc1noc(C)c1S(=O)(=O)NCCc1ccc(S(N)(=O)=O)cc1` as the compound, how does the Potency read?
Its Potency is inconclusive: 4.15 µM [inhibitor, partial curve].

Which Potency does the source give for `COc1cccc(OC)c1C(=O)Nc1ccc(C)cc1C(=O)c1ccccc1` here?
Its Potency is inconclusive: 18.5 µM [inhibitor, single point].

Which Potency does the source give for `CC1CC1C(=O)N(C)CC(=O)Nc1ccc(Cl)c(C(F)(F)F)c1` (stereo not drawn) here?
The Potency was inconclusive: 10.4 µM [inhibitor, partial curve].
